Results: article PMC3422304

Target: Pcf11-myc (Schizosaccharomyces pombe)
Experiment: co-IP; total cell lysates of S. pombe strains expressing Rhn1-PK alone or with Dhp1-myc, Din1-myc or Pcf11-myc; immunoprecipitation with anti-myc; immunoprecipitates and inputs analysed on Western blots

binding: binds
B1: Rhn1-PK (protein, UniProt O74814 1-387)
chain: MALTPDTVSSKLATLNETQESITGIAHWVMFHKRYADEIVQIWLEALYESSSNKKLLLLYLLNEVVQQSRVKKISEYIDAVSPYVVNSVADAYASVPASIKTKIKYVFDVWCQRGIFSKEILLSLQERFNNAENSGHSNYYPVGPPEWAPYTRLMTQTSLYAKSAHSTKTVVDALYKSYLEKQSDYSELLDNYKKQLNKASESCKGNYQACIESRSTLITSLESLIEEQKKLLSEEEESLKSVESIISNLENKESTTATSTLTDAGFGDKSSTAGKHNVETTSPPSSSPNSDDAYSPQVDSYSPSINSVPYTSNIVENPSEDNLSPLPPPASGPYSQEEEETSLFKSQRKEENEEESKELPEDSDIYGKDSSPSSDDSSAAGLYGDS

No constants are given. Whether binding was seen depends on the method and setting. Binding seen in cells or lysates may run through a third protein. Binding can be weak; no strength is given.
